Assay results taken from publication PMC11585138.
Results are given in words; binding and its absence hold for the method and conditions named. Binding seen in cells or lysates may run through a third protein. Some results given as binding are weak or reduced against the parent protein; the word gives no strength.

By UniProt entry, the sequences of proteins in these tests, tags left out. Residues count along the entry.
UniProt P12032, residues 25-205: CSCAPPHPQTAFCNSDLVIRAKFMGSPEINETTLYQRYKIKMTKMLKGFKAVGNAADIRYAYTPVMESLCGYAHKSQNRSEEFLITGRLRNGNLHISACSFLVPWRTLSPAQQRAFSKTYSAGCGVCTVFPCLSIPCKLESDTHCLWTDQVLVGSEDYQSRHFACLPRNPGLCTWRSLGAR

Biological target: TFRC (mouse (endogenous in MC3T3-E1)) (UniProt Q62351)
Experiment: co-IP; endogenous co-IP from total lysates (RIPA buffer) of control and HGHF-treated MC3T3-E1 osteoblasts; precipitated with anti-TFRC antibody or mock IgG and protein A/G agarose beads overnight at 4 °C; immunoblot

binding: binds
Substance: TIMP1 (from UniProt P12032 25-205)
